Test results published in paper PMC6520365, “Structural and functional characterization of the PDZ domain of the human phosphatase PTPN3 and its interaction with the human papillomavirus E6 oncoprotein” (Scientific Reports, 2019).

Sequences of proteins named here, by UniProt entry; tags and fusion partners are left off. A change or cut given only in a name is not applied to a line headed by its entry.
UniProt P26045: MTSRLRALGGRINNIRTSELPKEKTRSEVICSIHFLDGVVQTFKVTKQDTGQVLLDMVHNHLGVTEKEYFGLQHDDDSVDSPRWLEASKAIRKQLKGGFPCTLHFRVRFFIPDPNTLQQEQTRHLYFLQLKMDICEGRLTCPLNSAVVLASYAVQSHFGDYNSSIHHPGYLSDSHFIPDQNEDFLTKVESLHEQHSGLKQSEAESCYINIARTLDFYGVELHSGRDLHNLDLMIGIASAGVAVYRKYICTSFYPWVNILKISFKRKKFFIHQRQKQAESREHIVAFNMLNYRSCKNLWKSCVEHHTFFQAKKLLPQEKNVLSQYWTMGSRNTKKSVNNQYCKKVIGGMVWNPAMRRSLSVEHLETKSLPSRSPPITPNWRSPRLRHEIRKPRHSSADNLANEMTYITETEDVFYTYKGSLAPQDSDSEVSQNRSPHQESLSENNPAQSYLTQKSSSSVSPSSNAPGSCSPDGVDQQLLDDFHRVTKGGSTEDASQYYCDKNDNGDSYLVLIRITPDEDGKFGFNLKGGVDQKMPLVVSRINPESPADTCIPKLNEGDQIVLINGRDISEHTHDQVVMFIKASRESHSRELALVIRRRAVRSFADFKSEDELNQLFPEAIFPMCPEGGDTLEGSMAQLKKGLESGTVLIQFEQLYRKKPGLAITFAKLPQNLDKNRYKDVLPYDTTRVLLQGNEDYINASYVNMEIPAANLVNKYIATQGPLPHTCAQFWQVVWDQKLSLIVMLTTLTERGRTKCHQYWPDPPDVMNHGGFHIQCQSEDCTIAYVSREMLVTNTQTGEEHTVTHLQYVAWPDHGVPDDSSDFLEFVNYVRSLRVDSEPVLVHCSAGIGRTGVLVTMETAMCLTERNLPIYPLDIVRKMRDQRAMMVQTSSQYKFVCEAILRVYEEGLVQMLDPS

Target: PDZ domain of the human protein tyrosine phosphatase non-receptor type 3 (PTPN3-PDZ) (human) (UniProt P26045)
Test: differential scanning calorimetry (DSC); 28 μM PTPN3-PDZ with a large excess of peptide (about 200-600 μM), buffer A, scanned from 10 °C to 90-100 °C at 200 °C/h; rise of Tm against the free domain; both purified

Binder	binding
SWARVSKETPL [p38γ PBM peptide (C-terminal sequence of the MAP kinase p38γ)]	binds
RRRRSQSRESQC [HBVc PBM peptide (C-terminal sequence of the hepatitis B virus core protein)]	binds

These are yes or no findings as the source states them, for the method shown. Binding calls can cover weak binding; strength is not graded here.
